Assay results reported in paper PMC4405268.
These are yes or no findings as the source states them, for the method shown. For some assays here: Binding seen in cells or lysates may run through a third protein. Some binding calls cover weakened binding; strength is not graded here.

Sequences of proteins named here, by UniProt entry; tags and fusion partners are left off. Residues count along the entry.
UniProt P14625, residues 22-803: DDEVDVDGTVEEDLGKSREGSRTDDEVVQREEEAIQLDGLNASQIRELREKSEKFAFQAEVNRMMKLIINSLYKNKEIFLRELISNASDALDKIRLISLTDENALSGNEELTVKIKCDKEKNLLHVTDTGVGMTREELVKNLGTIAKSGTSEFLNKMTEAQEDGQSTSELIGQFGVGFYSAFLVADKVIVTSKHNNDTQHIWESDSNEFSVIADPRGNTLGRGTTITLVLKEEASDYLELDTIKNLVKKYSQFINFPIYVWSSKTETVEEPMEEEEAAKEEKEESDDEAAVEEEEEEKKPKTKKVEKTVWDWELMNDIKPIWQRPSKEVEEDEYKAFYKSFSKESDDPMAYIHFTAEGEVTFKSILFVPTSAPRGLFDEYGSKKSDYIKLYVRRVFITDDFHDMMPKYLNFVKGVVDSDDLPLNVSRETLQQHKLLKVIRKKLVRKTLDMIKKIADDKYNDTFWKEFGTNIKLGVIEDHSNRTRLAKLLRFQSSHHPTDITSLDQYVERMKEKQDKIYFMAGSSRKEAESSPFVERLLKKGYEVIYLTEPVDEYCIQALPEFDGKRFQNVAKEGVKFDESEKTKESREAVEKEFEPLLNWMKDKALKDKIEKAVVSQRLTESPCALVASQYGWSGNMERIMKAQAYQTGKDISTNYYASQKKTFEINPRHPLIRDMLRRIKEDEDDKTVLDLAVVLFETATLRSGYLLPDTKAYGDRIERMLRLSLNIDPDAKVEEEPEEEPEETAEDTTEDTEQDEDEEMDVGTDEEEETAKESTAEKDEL

Key:
[1] = target: gp96 inhibitory peptide p37, biotin conjugated; test: ELISA; biotinylated peptides on 96-well streptavidin plates; purified gp96 at 0 to 20 μg/ml added in 20 mM HEPES (pH 7.2), 20 mM NaCl, 2 mM MgCl2, 100 mM KCl for 1.5 h; detected with anti-gp96 antibody and HRP-conjugated secondary antibody, TMB, 450 nm; both purified
[2] = target: HER2, endogenous in SK-BR-3 cells (human (endogenous in SK-BR-3)) (UniProt P04626); test: co-IP; total lysate of SK-BR-3 cells precipitated with anti-HER2 antibody and Protein G Sepharose, Western blot; cells treated with 20 μg/ml of p37 or control peptide for 30 min; for HER1 and HER3, cells pre-treated with EGF (50 ng/ml) or β-heregulin (100 ng/ml) for 15 min

| binding [1] | binding [2] | Substance |
| --- | --- | --- |
| binds | – | heat shock protein gp96, purified (from UniProt P14625 22-803) |
| – | binds | gp96, endogenous in SK-BR-3 cells (from UniProt P14625 22-803) |
